# Measurements reported in PubChem BioAssay AID1259267 (Sanger Institute, 2017)
# Aim: 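Which kinases and bowel-cancer genes GP5D cells need, with or without anchor drugs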 (primary screen)
# Cell system: human GP5D colorectal cancer cells
# Reagents: siRNA pool against human genes
# Conditions: anchor drugs at low dose: BYL719 1 µM, cetuximab 5 µg/ml, trametinib 10 nM, or DMSO vehicle
# Measurement: 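Mean replicate viability versus non-targeting pool, given as knock-down-alone robust z-score, DMSO fraction, and synergy with low-dose BYL719, cetuximab or trametinib (1 µM, 5 µg/ml, 10 nM)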
# Reading the numbers: robust z-score, knock-down alone and viability with DMSO: higher = more viable cells; synergy score with trametinib and synergy score with BYL719: higher = stronger synthetic lethal synergy with drug
# Call rule: 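a robust z-score below -3 for the knock-down by itself makes a gene active, i.e. essential alone; synergy scores are ignored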
# Calls: active = essential alone; inactive = not essential
# The deposit covers 794 reagents; below is an unselected part. 9 of all reagents (1.1%) count as active. 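Viability capped at 1; calls reflect loss of viability from knock-down alone, not synergy with drugs.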 Further read-outs or replicates are left out here. The record does not give: the amount of reagent, the time to read-out.
gene,"robust z-score, knock-down alone",viability with DMSO (fraction of control),synergy score with trametinib,synergy score with BYL719,call
IRAK3 (interleukin 1 receptor associated kinase 3),-0.783,0.661,0.136,-0.0498,inactive
CSK (C-terminal Src kinase),0.817,1,-0.197,-0.282,inactive
N4BP2 (NEDD4 binding protein 2),0.817,1,-0.145,-0.304,inactive
CDK13 (cyclin dependent kinase 13),0.817,1,0.045,0.0195,inactive
DLG1 (discs large MAGUK scaffold protein 1),0.572,0.948,-0.0424,-0.122,inactive
CAMK2G (calcium/calmodulin dependent protein kinase II gamma),0.715,0.978,-0.119,-0.249,inactive
IP6K3 (inositol hexakisphosphate kinase 3),-1.1,0.594,-0.0351,-0.1,inactive
STRADA (STE20 related adaptor alpha),-1.43,0.525,-0.15,-0.25,inactive
SBK1 (SH3 domain binding kinase 1),0.675,0.97,0.212,-0.0328,inactive
PDK4 (pyruvate dehydrogenase kinase 4),0.817,1,-0.0739,0.0651,inactive
GRK3 (G protein-coupled receptor kinase 3),0.74,0.984,0.0604,-0.316,inactive
LMTK3 (lemur tail kinase 3),-1.91,0.422,-0.24,-0.411,inactive
PIK3R5 (phosphoinositide-3-kinase regulatory subunit 5),-1.37,0.537,-0.0327,-0.327,inactive
BRD3 (bromodomain containing 3),0.803,0.997,0.209,-0.0359,inactive
CERK (ceramide kinase),0.817,1,-0.197,-0.182,inactive
STK25 (serine/threonine kinase 25),0.817,1,-0.0497,-0.0186,inactive
ELF3 (E74 like ETS transcription factor 3),-1.81,0.444,-0.22,-0.321,inactive
PBK (PDZ binding kinase),0.438,0.92,-0.0488,-0.248,inactive
TPD52L3 (TPD52 like 3),-0.276,0.768,0.0256,-0.388,inactive
PINK1 (PTEN induced kinase 1),0.817,1,0.199,0.0081,inactive
TGFBR3 (transforming growth factor beta receptor 3),0.27,0.884,-0.152,-0.11,inactive
SGK3 (serum/glucocorticoid regulated kinase family member 3),0.817,1,0.106,-0.143,inactive
CSNK2A1 (casein kinase 2 alpha 1),0.817,1,0.0277,-0.0661,inactive
CDK6 (cyclin dependent kinase 6),0.429,0.918,-0.0367,-0.0432,inactive
HUNK (hormonally up-regulated Neu-associated kinase),-2.63,0.269,-0.193,-0.06,inactive

8 entries from above, arranged by “viability with DMSO (fraction of control)”, low to high:
gene,"robust z-score, knock-down alone",viability with DMSO (fraction of control),synergy score with trametinib,synergy score with BYL719,call
STRADA (STE20 related adaptor alpha),-1.43,0.525,-0.15,-0.25,inactive
IP6K3 (inositol hexakisphosphate kinase 3),-1.1,0.594,-0.0351,-0.1,inactive
DLG1 (discs large MAGUK scaffold protein 1),0.572,0.948,-0.0424,-0.122,inactive
SBK1 (SH3 domain binding kinase 1),0.675,0.97,0.212,-0.0328,inactive
CAMK2G (calcium/calmodulin dependent protein kinase II gamma),0.715,0.978,-0.119,-0.249,inactive
CSK (C-terminal Src kinase),0.817,1,-0.197,-0.282,inactive
N4BP2 (NEDD4 binding protein 2),0.817,1,-0.145,-0.304,inactive
CDK13 (cyclin dependent kinase 13),0.817,1,0.045,0.0195,inactive

Further records follow:
gene,"robust z-score, knock-down alone",viability with DMSO (fraction of control),synergy score with trametinib,synergy score with BYL719,call
PRPS1L1 (phosphoribosyl pyrophosphate synthetase 1 like 1),-0.561,0.708,0.00195,-0.204,inactive
ATR (ATR checkpoint kinase),0.817,1,0.157,-0.139,inactive
DIS3 (DIS3 exosome endoribonuclease and 3'-5' exoribonuclease),0.585,0.951,0.0867,-0.0355,inactive
SMC1A (structural maintenance of chromosomes 1A),-2.13,0.376,-0.0337,-0.0395,inactive
MAP3K4 (mitogen-activated protein kinase kinase kinase 4),0.489,0.931,-0.0679,-0.153,inactive
"PRKDC (protein kinase, DNA-activated, catalytic subunit)",-0.17,0.791,0.00731,-0.00825,inactive
PRKD2 (protein kinase D2),-2.78,0.238,-0.0934,-0.246,inactive
CDC42BPA (CDC42 binding protein kinase alpha),-1.82,0.44,-0.0253,-0.221,inactive
CDK16 (cyclin dependent kinase 16),0.449,0.922,0.318,0.106,inactive
PANK1 (pantothenate kinase 1),0.817,1,-0.0476,-0.361,inactive
AKT2 (AKT serine/threonine kinase 2),0.817,1,0.169,0.0168,inactive
SPHK1 (sphingosine kinase 1),0.817,1,0.213,-0.00724,inactive
ATM (ATM serine/threonine kinase),0.471,0.927,0.0464,-0.125,inactive
STRADB (STE20 related adaptor beta),-1.01,0.613,-0.349,-0.285,inactive
GATA3 (GATA binding protein 3),-0.315,0.76,0.147,-0.0256,inactive
ULK2 (unc-51 like autophagy activating kinase 2),-0.576,0.705,0.107,-0.226,inactive
MAPKAPK3 (MAPK activated protein kinase 3),-0.702,0.678,-0.178,-0.0792,inactive
PDGFRB (platelet derived growth factor receptor beta),-0.0818,0.809,0.00703,0.062,inactive
MAP3K3 (mitogen-activated protein kinase kinase kinase 3),-1.07,0.6,-0.114,-0.23,inactive
TAOK2 (TAO kinase 2),0.0848,0.845,-0.0698,-0.234,inactive
BMP2K (BMP2 inducible kinase),0.1,0.848,0.204,-0.104,inactive
PIK3R4 (phosphoinositide-3-kinase regulatory subunit 4),-2.08,0.387,-0.0279,-0.306,inactive
MYO3A (myosin IIIA),-1.42,0.526,-0.189,-0.371,inactive
STK31 (serine/threonine kinase 31),0.817,1,-0.0445,0.0197,inactive
MAP3K1 (mitogen-activated protein kinase kinase kinase 1),0.817,1,0.267,-0.191,inactive
